Reference: publication PMC9150345
Results are given in words; binding and its absence hold for the method and conditions named. In cells and extracts the contact can be indirect. Some entries that bind do so weakly or less than the wild type. Sequences can lack the tags named with a protein.

Protein sequences, listed by entry. Tags and fused reporters are not part of them.
UniProt P20226: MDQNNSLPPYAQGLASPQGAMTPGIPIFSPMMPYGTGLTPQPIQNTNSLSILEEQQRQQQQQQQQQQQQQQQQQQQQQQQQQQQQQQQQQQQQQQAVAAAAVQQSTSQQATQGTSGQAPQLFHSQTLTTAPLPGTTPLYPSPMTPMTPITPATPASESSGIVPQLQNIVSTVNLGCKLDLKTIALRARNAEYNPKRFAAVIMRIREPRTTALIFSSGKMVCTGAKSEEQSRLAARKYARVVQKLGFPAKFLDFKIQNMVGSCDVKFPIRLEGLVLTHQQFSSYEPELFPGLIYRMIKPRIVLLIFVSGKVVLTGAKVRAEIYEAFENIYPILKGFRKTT

Molecular target: TATA-binding protein (hTBP), fused to the N-terminal fragment of Venus (human) (UniProt P20226)
Test: split reporter; BiFC assays of TBP with TFIIEβ (unpublished results)

B1: TFIIEβ, BiFC fusion (unpublished results) (protein, UniProt O96881 1-292)
chain: MDPALLREREAFKKRAMATPTVEKKSKPDRPAPPPPSDDSRRKMRPPNAPRLDATTYKTMSGSSQYRFGVLAKIVKFMRTRHQDGDDHPLTIDEILDETNQLDIGQSVKNWLASEALHNNPKVEASPCGTKFSFKPVYKIKDGKTLMRLLKQHDLKGLGGILLDDVQESLPHCEKVLKNRSAEILFVVRPIDKKKILFYNDRTANFSVDDEFQKLWRSATVDAMDDAKIDEYLEKQGIRSMQDHGLKKAIPKRKKAANKKRQFKKPRDNEHLADVLEVYEDNTLTLKGVNPT
In the case of B1, the binding is reported as “binds weakly”.
